Experimental data: paper PMC5696377
These are yes or no findings as the source states them, for the method shown. In cells and extracts the contact can be indirect. Some binding calls cover weakened binding; strength is not graded here.

Amino acid sequences for entries named in this document (tags omitted). A change or cut given only in a name is not applied to a line headed by its entry.
UniProt O15111: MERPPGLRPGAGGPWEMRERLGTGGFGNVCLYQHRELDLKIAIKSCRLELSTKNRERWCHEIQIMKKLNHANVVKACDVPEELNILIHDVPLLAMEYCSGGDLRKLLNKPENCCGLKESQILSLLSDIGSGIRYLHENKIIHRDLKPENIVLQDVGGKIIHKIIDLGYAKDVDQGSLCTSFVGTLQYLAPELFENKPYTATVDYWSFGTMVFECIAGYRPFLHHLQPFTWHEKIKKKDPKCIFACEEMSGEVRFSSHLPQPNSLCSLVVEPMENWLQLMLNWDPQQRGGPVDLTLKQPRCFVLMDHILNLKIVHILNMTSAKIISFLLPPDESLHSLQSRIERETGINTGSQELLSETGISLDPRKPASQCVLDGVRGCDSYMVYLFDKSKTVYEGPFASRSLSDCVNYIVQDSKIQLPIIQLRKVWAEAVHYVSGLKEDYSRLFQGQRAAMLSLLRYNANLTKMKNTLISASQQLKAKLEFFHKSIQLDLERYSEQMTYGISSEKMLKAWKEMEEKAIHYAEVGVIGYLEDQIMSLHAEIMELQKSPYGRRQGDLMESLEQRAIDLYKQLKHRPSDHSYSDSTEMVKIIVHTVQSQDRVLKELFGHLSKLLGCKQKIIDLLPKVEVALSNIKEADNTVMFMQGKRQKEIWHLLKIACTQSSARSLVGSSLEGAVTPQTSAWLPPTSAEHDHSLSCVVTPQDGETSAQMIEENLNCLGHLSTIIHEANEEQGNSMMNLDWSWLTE
UniProt Q9Y6K9: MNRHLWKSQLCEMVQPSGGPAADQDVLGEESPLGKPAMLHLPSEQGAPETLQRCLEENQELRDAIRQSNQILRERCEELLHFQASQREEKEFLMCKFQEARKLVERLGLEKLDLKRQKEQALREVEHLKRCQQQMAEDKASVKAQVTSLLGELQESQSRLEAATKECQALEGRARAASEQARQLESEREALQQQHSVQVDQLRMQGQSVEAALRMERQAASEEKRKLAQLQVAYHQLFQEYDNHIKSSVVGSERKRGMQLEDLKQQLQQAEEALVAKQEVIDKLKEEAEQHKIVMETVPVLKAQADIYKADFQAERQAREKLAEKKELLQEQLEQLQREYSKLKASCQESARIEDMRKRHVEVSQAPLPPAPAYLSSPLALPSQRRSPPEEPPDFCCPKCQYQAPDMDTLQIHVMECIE
UniProt Q60680: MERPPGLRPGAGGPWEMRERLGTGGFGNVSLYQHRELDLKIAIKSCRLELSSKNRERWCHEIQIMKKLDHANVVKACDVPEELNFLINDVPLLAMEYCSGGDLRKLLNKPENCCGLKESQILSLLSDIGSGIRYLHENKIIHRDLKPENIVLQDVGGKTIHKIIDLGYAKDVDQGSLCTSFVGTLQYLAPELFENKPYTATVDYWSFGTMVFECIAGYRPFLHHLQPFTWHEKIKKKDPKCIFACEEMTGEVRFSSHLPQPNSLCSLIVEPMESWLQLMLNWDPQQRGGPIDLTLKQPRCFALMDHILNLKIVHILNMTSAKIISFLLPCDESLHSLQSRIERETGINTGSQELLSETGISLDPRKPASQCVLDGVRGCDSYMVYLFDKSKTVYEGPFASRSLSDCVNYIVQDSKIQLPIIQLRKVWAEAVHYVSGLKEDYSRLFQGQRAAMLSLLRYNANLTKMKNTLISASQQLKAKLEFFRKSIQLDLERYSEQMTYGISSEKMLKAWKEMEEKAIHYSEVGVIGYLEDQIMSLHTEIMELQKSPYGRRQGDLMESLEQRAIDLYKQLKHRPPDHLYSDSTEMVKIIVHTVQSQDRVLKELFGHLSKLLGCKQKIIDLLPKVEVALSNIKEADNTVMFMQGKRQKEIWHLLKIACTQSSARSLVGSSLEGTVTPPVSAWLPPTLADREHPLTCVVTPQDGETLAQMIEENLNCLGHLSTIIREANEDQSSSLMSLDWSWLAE
UniProt Q9Z1E3: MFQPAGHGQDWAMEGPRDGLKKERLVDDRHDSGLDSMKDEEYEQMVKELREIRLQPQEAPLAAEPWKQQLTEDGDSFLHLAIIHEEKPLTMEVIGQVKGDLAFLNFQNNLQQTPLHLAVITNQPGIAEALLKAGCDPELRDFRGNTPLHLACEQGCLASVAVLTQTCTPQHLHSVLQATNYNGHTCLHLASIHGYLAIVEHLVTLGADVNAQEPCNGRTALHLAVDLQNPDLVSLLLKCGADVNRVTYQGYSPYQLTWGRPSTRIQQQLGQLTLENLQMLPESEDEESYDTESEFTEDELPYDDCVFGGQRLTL
UniProt P25963: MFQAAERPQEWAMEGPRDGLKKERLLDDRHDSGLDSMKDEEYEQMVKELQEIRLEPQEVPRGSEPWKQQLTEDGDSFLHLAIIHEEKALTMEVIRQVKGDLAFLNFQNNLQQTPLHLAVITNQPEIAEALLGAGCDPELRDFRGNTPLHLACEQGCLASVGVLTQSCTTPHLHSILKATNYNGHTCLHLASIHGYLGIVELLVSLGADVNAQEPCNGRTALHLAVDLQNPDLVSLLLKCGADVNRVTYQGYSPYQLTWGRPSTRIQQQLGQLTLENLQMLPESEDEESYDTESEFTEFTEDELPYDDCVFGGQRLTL

Experiments:
[1] = target: T1, Morgana/chp-1 (CHORDC1 gene product) (human (endogenous in MDA-MB-231, BT549)) (UniProt Q9UHD1); assay: co-IP; immunoprecipitation from the non-tumorigenic cell lines HEK293 and NIH-3T3 (Supplementary Fig. 6a, b)
T1 sequence: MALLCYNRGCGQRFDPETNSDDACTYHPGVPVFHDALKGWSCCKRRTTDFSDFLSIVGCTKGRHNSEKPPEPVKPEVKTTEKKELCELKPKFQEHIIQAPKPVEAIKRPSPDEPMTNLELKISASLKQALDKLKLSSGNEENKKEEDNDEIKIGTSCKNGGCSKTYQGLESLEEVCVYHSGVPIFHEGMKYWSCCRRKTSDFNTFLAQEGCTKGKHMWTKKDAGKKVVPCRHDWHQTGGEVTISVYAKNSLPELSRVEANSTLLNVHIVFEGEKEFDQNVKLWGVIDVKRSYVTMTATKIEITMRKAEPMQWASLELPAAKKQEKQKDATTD

[2] = target: T2, Morgana (NIH-3T3) (mouse (endogenous in NIH-3T3)) (UniProt Q9D1P4); assay: as above
T2 sequence: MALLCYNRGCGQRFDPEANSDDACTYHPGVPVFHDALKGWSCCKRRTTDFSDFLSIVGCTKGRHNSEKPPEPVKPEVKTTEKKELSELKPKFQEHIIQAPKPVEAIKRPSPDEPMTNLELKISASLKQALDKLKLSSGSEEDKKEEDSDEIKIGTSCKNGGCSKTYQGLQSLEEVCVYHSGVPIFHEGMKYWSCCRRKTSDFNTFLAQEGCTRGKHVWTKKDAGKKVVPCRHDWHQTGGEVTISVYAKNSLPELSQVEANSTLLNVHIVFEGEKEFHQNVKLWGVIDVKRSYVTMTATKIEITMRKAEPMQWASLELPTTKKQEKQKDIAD

[3] = target: T1, Morgana/chp-1 (CHORDC1 gene product) (human (endogenous in MDA-MB-231, BT549)); assay: co-IP; immunoprecipitation of Morgana from MDA-MB-231 or BT549 extracts (lysis buffer 25 mM Tris-HCl pH 8, 1 mM MgCl2), antibody overnight at 4 °C, protein G Sepharose, 10 washes, immunoblot; also done in MDA-MB-231 silenced for Hsp90 or cdc37

Substance | binding [1] | binding [2] | binding [3]
IKK complex (HEK293) (from UniProt O15111 1-745; O14920 1-756; Q9Y6K9 1-419) | binds | – | –
IKK complex (NIH-3T3) (from UniProt Q60680 1-745; O88351 1-757; O88522 1-412) | – | binds | –
IKKγ/NEMO (from UniProt Q9Y6K9 1-419) | – | – | binds

Now from value to substance:

binding [1] | binding [2] | binding [3] | Substance
– | binds | – | IκBα (NIH-3T3) (from UniProt Q9Z1E3 1-314)
binds | – | binds | IκBα (from UniProt P25963 1-317)
